In assay [1] the target is T1, Pch2-E399Q (budding yeast) (UniProt P38126).
T1 sequence: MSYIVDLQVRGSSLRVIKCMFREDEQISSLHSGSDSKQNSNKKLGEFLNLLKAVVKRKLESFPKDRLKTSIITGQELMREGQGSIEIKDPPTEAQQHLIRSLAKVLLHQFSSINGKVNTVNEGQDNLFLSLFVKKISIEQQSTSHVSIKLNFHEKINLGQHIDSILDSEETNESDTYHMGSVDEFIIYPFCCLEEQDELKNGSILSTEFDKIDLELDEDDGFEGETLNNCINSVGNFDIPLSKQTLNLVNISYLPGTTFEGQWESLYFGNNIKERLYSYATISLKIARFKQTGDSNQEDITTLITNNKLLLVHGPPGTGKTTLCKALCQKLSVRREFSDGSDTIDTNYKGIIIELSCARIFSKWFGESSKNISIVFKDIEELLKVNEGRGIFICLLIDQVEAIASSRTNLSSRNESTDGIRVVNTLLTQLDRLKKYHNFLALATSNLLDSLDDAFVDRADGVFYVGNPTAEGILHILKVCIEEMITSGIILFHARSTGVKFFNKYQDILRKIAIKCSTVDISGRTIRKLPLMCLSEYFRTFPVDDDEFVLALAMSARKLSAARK
The assay is described as follows: co-IP.

Assay [2] concerns the target T2, Orc2 (precipitated with α-Orc2) (budding yeast (endogenous in SK1 meiotic cells)) (UniProt P32833).
T2 sequence: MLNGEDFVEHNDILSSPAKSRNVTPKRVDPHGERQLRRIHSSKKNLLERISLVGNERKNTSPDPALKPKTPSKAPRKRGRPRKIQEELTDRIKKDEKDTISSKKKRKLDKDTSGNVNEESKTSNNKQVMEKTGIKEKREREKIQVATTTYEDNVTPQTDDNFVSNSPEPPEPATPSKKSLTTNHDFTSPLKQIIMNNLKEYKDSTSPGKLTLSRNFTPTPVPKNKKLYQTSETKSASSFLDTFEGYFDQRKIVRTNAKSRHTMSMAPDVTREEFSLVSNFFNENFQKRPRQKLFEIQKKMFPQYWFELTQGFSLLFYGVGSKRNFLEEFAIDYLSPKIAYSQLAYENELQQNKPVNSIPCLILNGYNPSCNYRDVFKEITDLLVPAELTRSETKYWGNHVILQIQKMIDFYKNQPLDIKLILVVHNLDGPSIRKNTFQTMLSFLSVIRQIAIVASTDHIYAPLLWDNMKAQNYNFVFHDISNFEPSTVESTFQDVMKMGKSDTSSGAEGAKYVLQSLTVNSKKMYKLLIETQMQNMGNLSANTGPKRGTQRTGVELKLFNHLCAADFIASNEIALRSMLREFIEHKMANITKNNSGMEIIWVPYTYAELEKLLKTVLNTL
The assay is described as follows: co-IP.

Assay [3] has as its target His-MBP-Pch2-2-144 (budding yeast) (UniProt P38126). Description: SEC. (In general: In gel filtration, larger molecules generally elute earlier.)

These are yes or no findings as the source states them, for the method shown. For part of these data: In cells and extracts the contact can be indirect. Some binding calls cover weakened binding; strength is not graded here. Sequences can lack the tags named with a protein.

B1: Orc1 (found with Pch2-E399Q in the α-HA IP and in the mass-spectrometric analysis) (protein, UniProt P54784 1-914)
chain: MAKTLKDLQGWEIITTDEQGNIIDGGQKRLRRRGAKTEHYLKRSSDGIKLGRGDSVVMHNEAAGTYSVYMIQELRLNTLNNVVELWALTYLRWFEVNPLAHYRQFNPDANILNRPLNYYNKLFSETANKNELYLTAELAELQLFNFIRVANVMDGSKWEVLKGNVDPERDFTVRYICEPTGEKFVDINIEDVKAYIKKVEPREAQEYLKDLTLPSKKKEIKRGPQKKDKATQTAQISDAETRATDITDNEDGNEDESSDYESPSDIDVSEDMDSGEISADELEEEEDEEEDEDEEEKEARHTNSPRKRGRKIKLGKDDIDASVQPPPKKRGRKPKDPSKPRQMLLISSCRANNTPVIRKFTKKNVARAKKKYTPFSKRFKSIAAIPDLTSLPEFYGNSSELMASRFENKLKTTQKHQIVETIFSKVKKQLNSSYVKEEILKSANFQDYLPARENEFASIYLSAYSAIESDSATTIYVAGTPGVGKTLTVREVVKELLSSSAQREIPDFLYVEINGLKMVKPTDCYETLWNKVSGERLTWAASMESLEFYFKRVPKNKKKTIVVLLDELDAMVTKSQDIMYNFFNWTTYENAKLIVIAVANTMDLPERQLGNKITSRIGFTRIMFTGYTHEELKNIIDLRLKGLNDSFFYVDTKTGNAILIDAAGNDTTVKQTLPEDVRKVRLRMSADAIEIASRKVASVSGDARRALKVCKRAAEIAEKHYMAKHGYGYDGKTVIEDENEEQIYDDEDKDLIESNKAKDDNDDDDDNDGVQTVHITHVMKALNETLNSHVITFMTRLSFTAKLFIYALLNLMKKNGSQEQELGDIVDEIKLLIEVNGSNKFVMEIAKTLFQQGSDNISEQLRIISWDFVLNQLLDAGILFKQTMKNDRICCVKLNISVEEAKRAMNEDETLRNL
On to B1, for which the binding entry in assay [1] is given as “binds”.

B2: 3xFLAG-tagged Pch2-E399Q (protein, UniProt P38126 1-564)
chain: T1 sequence
B2: the binding result in assay [2] is “binds”.

B3: His-MBP-Pch2-2-144 (domain or fragment, UniProt P38126 2-144)
chain: SYIVDLQVRGSSLRVIKCMFREDEQISSLHSGSDSKQNSNKKLGEFLNLLKAVVKRKLESFPKDRLKTSIITGQELMREGQGSIEIKDPPTEAQQHLIRSLAKVLLHQFSSINGKVNTVNEGQDNLFLSLFVKKISIEQQSTS
With B3, the binding result in assay [3] is on record as “no binding (tested: 6 μM)”.
